Measurements taken from paper PMC9765026.

Molecular target: PBP1A-FLAG (A. baumannii PBP1A with a C-terminal Flag fusion) (A. baumannii)
Assay: co-IP; A. baumannii cells in mid-logarithmic growth cross-linked in vivo with 25 mM DSP (1 h, 37°C), quenched with glycine, lysed and solubilised (Triton X-100); FLAG-tagged bait precipitated overnight at 4°C on anti-FLAG M2 affinity resin, washed 4 times with RIPA buffer; partners detected by Western blot with specific antisera

binding: no binding
B1: PBP2 (A. baumannii, endogenous) (enzyme, UniProt D0C8Z9 1-672)
chain: MKQHFPLKDIQQEKRIYRGRIFFAVGLVIICLLVLASRYAYLQIFHYDEFSTASDKNRIRLQPLPPARGYIYDRNGVLLADNYPVFTATLSKADVENVDTVIEQLQPILELTQEDVDRFKSRIKTARKTERVAIKLNLTETNIAKFSEVKYKFPGVRIETQMTRYYPHGDLFAHVIGYVGRINDKELKSIDKDLYAGTNLIGKIGVEKSYEDLLHGTPGYESVEADAHSNILRHLGRKDPTRGNDLYLSLDYGLQVVASQQLAGRRGAIVAIDPRTGEILALVSSPSFNPNLFVTGINHKDYSSLRDNIDQPLYNRAVQGVYPPGSTIKPMEAMGGLHYGIVDWATAISDPGYFHLPGDSHKFRDWKKTGHGIVNMHKAIIMSCDTYFYILANQMGIDQMNQWMRQFGFGQKTGVDLPSESEGLYPNPEWKMRTRKSKWMKGETISVSIGQGAFTATPLQLAMATAITANHGSHVVPHVLRATHGAKPFTVRNAPDGKINFNGTDEDWVKMREAMIDVIQSGTGRGIRTPLYQIAGKTGTAQVKSIAQGKRYNEAALSERQLDHGLFVGFAPADKPEIAIAVIWENGRHGGSAAQLAKPVFDYWLLTRKKNPIRPANHQVNGGLMTAGIKPGELPSGNESASSTPATSAPTSAAASTPQATPTRPATNEVDE

These are yes or no findings as the source states them, for the method shown. In cells and extracts the contact can be indirect.
